Columns and labels:
human extracted teeth = experiment: ICG immersion (ex vivo mouthwash) NIR fluorescence dental imaging of extracted human teeth
Protocol: (§1) Thirty-two human teeth were collected from the Louisiana State University Health Science Center (LSUHSC)—Department of Oral & Maxillofacial Surgery (Baton Rouge, USA), and the diseases were confirmed by Dr. Waleed Zaid. All the samples were fixed in a 10% neutral buffer formalin solution overnight and then washed with phosphate buffered saline (PBS) solution. Prior to the dental imaging, the teeth were immersed into 50 μM ICG solution. To compare the ex vivo mouthwash effects on human and rat teeth, extracted rat teeth from ICG-free rats were also immersed into 50 μM ICG solution. To optimize the imaging window (the time difference between ICG injection and observation), four teeth were removed from the solution and imaged at designated time points of 1 minute, 10 minutes, 30 minutes, 1 hour, 4 hours, 6 hours, 15 hours, and 24 hours using the method of the invention.
The imaging platform for the human teeth was previously described.^32 The experiments were approved by the Institutional Review Board of Louisiana State University (IRB #E11061).

extracted rat teeth = experiment: ICG immersion (ex vivo mouthwash) NIR dental imaging of extracted rat molar
Protocol: as §1
The profiles of the human tooth were able to be observed in as short as only 1 minute of ICG immersion, which is an ex vivo mouthwash delivery of dye (FIG. 5(A)-(C)). With increasing immersion time (4 and 24 hours), the profiles of the teeth became clearer than that of the 10 min-immersion. […] The molar became distinguishable after 30 min-immersion. The ICG concentration of immersion solution was 50 μM, the same as with human teeth.

[1] = tested on: rat molars (erupted P31, unerupted P14); experiment: ICG-assisted NIR dental imaging after subcutaneous injection in rat model; assay type: in vivo, Sprague Dawley rats; settings: imaging window 4 hours
Protocol: Self-breed Sprague Dawley rats, including eight postnatal day 31 (P31) and two P21 rats for erupted molars and sixteen P14 rats for unerupted molars, were utilized. To simulate the mouthwash with living rats, 10 μL ICG solution (1 mg/ml) was pipetted into the mouth of two P31 rats in vivo, and the rats were euthanized after 2 minutes. The other two P21 went through the same in vivo mouthwash procedure and euthanized after 1 minute. In addition, the mandibles were dissected from another two P31 rats directly after euthanasia, then washed with 10 μL ICG (1 mg/ml) solution ex vivo for 10 minutes. For the subcutaneous injection, every two P31 rats were euthanized at each time points 10 minutes and 24 hours, for the ICG injection on the back (5 mg/kg body weight). For the unerupted molars, two rats were sacrificed 1 minute after in vivo mouthwash, and the same for the erupted molars. To study concentration effect on imaging, 0.1, 0.5, 1, and 5 mg/kg of ICG were injected into eight P14 rats (two rats for each dosage, and euthanized for each concentration 4 hours after injection). For P14 rats to study imaging windows, two rats were euthanized at 10 minutes, 4 hours and 48 hours for posting ICG injection (5 mg/kg) respectively.
The imaging system is depicted in FIG. 1(A). A 785 nm laser source shined to the mandibles with fiber and filters, a NIR camera received the videos, and videos were recorded by computer. The mandibles were then extracted and imaged using ICG-assisted endoscopic NIR dental imaging, as described in previous publications.^29-31 In the endoscopic imaging, an output fiber was connected to the endoscope with a camera.^30 All experiments were approved by the Institutional Animal Care and Use Committee (IACUC) of Louisiana State University (Protocol #16-117) and followed the ethical guidelines of animal care.
Meanwhile, endoscopic imaging provided clearer morphologies of the first and second molars than wide-field imaging. The lingual and occlusal cusps of the molars could be easily distinguished, especially for the mouthwash treatment (FIG. 1(B)). As described in previous work,^29, 30 the intensity-mean difference Dmean_diff (IMD) was used as the image contrast for the quantitative evaluation of the target and background. To further reveal the efficiency of the mouthwash and local injection, a sampling line (yellow lines in FIG. 1) covering both molar regions and the surrounding tissues was used to calculate the image contrast of the molar and surrounding tissues.

SMILES: CC1(C)C(/C=C/C=C/C=C/C=C2\N(CCCCS(=O)(=O)O)c3ccc4ccccc4c3C2(C)C)=[N+](CCCCS(=O)(=O)[O-])c2ccc3ccccc3c21 [ICG, indocyanine green]
- peak wavelength of tooth fluorescence spectrum (human extracted teeth; human teeth, ICG immersion longer than four hours (holds)): around 833 nm
- peak wavelength of tooth fluorescence spectrum (human extracted teeth; human teeth, after the first four hours of ICG immersion): 836 nm
- crack detection (human extracted teeth; human teeth, first and second NIR windows, cracks not observed in micro-CT slices): both cracks were easily recognized
- peak wavelength of tooth fluorescence spectrum (human extracted teeth; human teeth, start of ICG immersion): 817 nm
- ICG immersion time at which profiles of the tooth were observed (human extracted teeth; human tooth, 50 μM ICG): 1 min
- enamel-dentin differentiation (human extracted teeth; human tooth, 1 minutes of ICG immersion): not distinguishable
- enamel-dentin differentiation (human extracted teeth; human tooth, 24 hours of ICG immersion): easily recognizable
- image contrast (extracted rat teeth; extracted rat first molar, immersed 30 minutes in 50 μM ICG solution): 0.65
- image contrast, amount less than that of the human teeth (extracted rat teeth; extracted rat tooth vs human teeth, 50 μM ICG immersion): 0.2
- image contrast (extracted rat teeth; extracted rat tooth, different ICG immersion times, kept stable (FIG. 5(D))): around 0.6
- ICG immersion time after which the molar became distinguishable (extracted rat teeth; extracted single rat first molar, 50 μM ICG): 30 min
- peak wavelength ([1]; ICG injection 0.1 mg/kg): ~813 nm
- peak wavelength ([1]; ICG injection 0.5 mg/kg): about 815 nm
- peak wavelength ([1]; ICG injection 1 mg/kg): about 815 nm
- peak wavelength ([1]; ICG injection 5 mg/kg): about 820 nm
